Data as given in PubChem BioAssay AID1259425 (University of Nebraska Medical Center, 2018).
The whole screen tested about 14,000 reagents; below is a random part of them. Not all columns of the deposit are shown. Reagent sequences are not shown. Not stated in the record: the time to read-out.

Test: 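Compare each knockdown with KSR1 silencing using changes in marker transcripts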 (primary screen)
System: HCT116 human colon cancer cells
Knock-down reagent: siRNA pool against human genes, 50 nM siRNA
Measurement: 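After 50 nM siRNA pool, branched-DNA assay measures six marker transcripts per well, minus blank, normalised to the geometric mean of two housekeeping transcripts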
Direction: BNIP3L mRNA: higher = more BNIP3L transcript after knockdown; NDRG1 mRNA: higher = more NDRG1 transcript after knockdown

GIMAP5 showed BNIP3L mRNA, set 1 = 0.0598; NDRG1 mRNA, set 1 = 0.0867. Against BEX1, the values are BNIP3L mRNA, set 1 = 0.107; NDRG1 mRNA, set 1 = 0.248. Silencing of SH2B2 resulted in: BNIP3L mRNA, set 1 = 0.103; NDRG1 mRNA, set 1 = 0.17. With knock-down of PRG4, the screen gave BNIP3L mRNA, set 1 = 0.08; NDRG1 mRNA, set 1 = 0.04. Depletion of TAF2 came out at: BNIP3L mRNA, set 1 = 0.0394; NDRG1 mRNA, set 1 = 0.0778. With knock-down of TYK2, the screen gave BNIP3L mRNA, set 1 = 0.12; NDRG1 mRNA, set 1 = 0.00927.

For CORO1A the deposit lists BNIP3L mRNA, set 1 = 0.205; NDRG1 mRNA, set 1 = 0.243. With knock-down of HLA-DOB the results were BNIP3L mRNA, set 1 = 0.0645; NDRG1 mRNA, set 1 = 0.406. After knock-down of ATF4, the screen gave BNIP3L mRNA, set 1 = 0.0481; NDRG1 mRNA, set 1 = 0.261. After knock-down of ATXN2, the screen gave BNIP3L mRNA, set 1 = 0.102; NDRG1 mRNA, set 1 = 0.276. DRICH1 showed BNIP3L mRNA, set 1 = 0.147; NDRG1 mRNA, set 1 = 0.123. Knock-down of CSNK1G1 came out at: BNIP3L mRNA, set 1 = 0.0719; NDRG1 mRNA, set 1 = 0.175.

Against RBM7, the values are BNIP3L mRNA, set 1 = 0.222; NDRG1 mRNA, set 1 = 0.0397. MTHFD1 gave BNIP3L mRNA, set 1 = 0.188; NDRG1 mRNA, set 1 = 0.176.

Reformatted: 4 of the entries above
{"gene knocked down": "SH2B2", "BNIP3L mRNA, set 1": 0.103, "NDRG1 mRNA, set 1": 0.17}
{"gene knocked down": "PRG4", "BNIP3L mRNA, set 1": 0.08, "NDRG1 mRNA, set 1": 0.04}
{"gene knocked down": "TAF2", "BNIP3L mRNA, set 1": 0.0394, "NDRG1 mRNA, set 1": 0.0778}
{"gene knocked down": "TYK2", "BNIP3L mRNA, set 1": 0.12, "NDRG1 mRNA, set 1": 0.00927}

Continued.
UGT8 showed BNIP3L mRNA, set 1 = 0.0826; NDRG1 mRNA, set 1 = 0.123. DIAPH1 gave BNIP3L mRNA, set 1 = 0.077; NDRG1 mRNA, set 1 = 0.479. For CIAO3 the deposit lists BNIP3L mRNA, set 1 = 0.139; NDRG1 mRNA, set 1 = 0.167. FCAR showed BNIP3L mRNA, set 1 = 0.102; NDRG1 mRNA, set 1 = 0.322. Knock-down of R3HDM2 came out at: BNIP3L mRNA, set 1 = 0.0286; NDRG1 mRNA, set 1 = 0.104. After knock-down of RAD50 the results were BNIP3L mRNA, set 1 = 0.104; NDRG1 mRNA, set 1 = 0.135.

With knock-down of HAS3 the results were BNIP3L mRNA, set 1 = 0.16; NDRG1 mRNA, set 1 = 0.482. Depletion of DDB1 gave: BNIP3L mRNA, set 1 = 0.19; NDRG1 mRNA, set 1 = 0.599. For ZNF532, the values are BNIP3L mRNA, set 1 = 0.127; NDRG1 mRNA, set 1 = 0.0663. Knock-down of KIR2DS3 came out at: BNIP3L mRNA, set 1 = 0.0731; NDRG1 mRNA, set 1 = 0.342. For TAAR5, the values are BNIP3L mRNA, set 1 = 0.143; NDRG1 mRNA, set 1 = 0.496. With knock-down of SH3GL1, the screen gave BNIP3L mRNA, set 1 = 0.179; NDRG1 mRNA, set 1 = 0.199.

Against SMIM7, the values are BNIP3L mRNA, set 1 = 0.0519; NDRG1 mRNA, set 1 = 0.0686. PSMB2 scored BNIP3L mRNA, set 1 = 0.567; NDRG1 mRNA, set 1 = 0.839. SENP1 scored BNIP3L mRNA, set 1 = 0.063; NDRG1 mRNA, set 1 = 0.102. ARHGEF2 gave BNIP3L mRNA, set 1 = 0.0913; NDRG1 mRNA, set 1 = 0.247. After knock-down of DYNC2I1, the record shows BNIP3L mRNA, set 1 = 0.123; NDRG1 mRNA, set 1 = 0.231. For EPN1 the deposit lists BNIP3L mRNA, set 1 = 0.0865; NDRG1 mRNA, set 1 = 0.123.

After knock-down of SERPINB4 the results were BNIP3L mRNA, set 1 = 0.134; NDRG1 mRNA, set 1 = 0.25. Knock-down of SMPD2 gave: BNIP3L mRNA, set 1 = 0.218; NDRG1 mRNA, set 1 = 0.485. Knock-down of POLR3G resulted in: BNIP3L mRNA, set 1 = 0.113; NDRG1 mRNA, set 1 = 0.698. For PCMT1, the entry reads BNIP3L mRNA, set 1 = 0.161; NDRG1 mRNA, set 1 = 0.292.
